# Experimental data reported in US10240124B2, “Cell culture substrate comprising a laminin and a cadherin” (BioLamina AB, priority 2011, dated 2019).
# For at least one compound, name, drawing or mass did not settle the structure.
# System: hES cells on LN-521
# Test: Inhibition of survival assay on LN-521
# Assay type: cell-based, human
# Conditions: medium contained bFGF, FIG. 16
# Text: InSolution™ LY 294002 (a specific Akt inhibitor), InSolution™ Wortmannin (a specific PI3K inhibitor), and InSolution™ 98059 (a specific MEK1/Erk inhibitor) were purchased from Calbiochem. Antibodies to phospho-Akt (#4060), total-Akt (#9272), phospho-Erk (#9101), and total-Erk (#9102) were obtained from Cell Signaling Technology. PathScan Phospho-Akt1 sandwich ELISA kit (#7160), PathScan total Akt1 sandwich ELISA kit (#7170), PathScan Phospho-Akt2 sandwich ELISA kit (#7048), and PathScan total Akt2 sandwich ELISA kit (#7046) were also purchased from Cell Signaling Technology. Antibodies to Calnexin (#ab10286) were obtained from Abcam. Function blocking antibodies to various integrin subunits, mouse isotype antibodies, and α-dystroglycan were purchased from Millipore. Since function blocking antibodies to αV (MAB1980) and α6 (MAB1378) were presented in a solution with sodium azide, before the inhibition of survival experiment all the antibodies to alpha integrin subunits were dialyzed thrice against O3 medium for 2 hours each time. Antibodies to Lutheran receptor and α-fetoprotein, as well as rat isotype control antibodies were obtained from R&D Systems. Antibodies to Oct4, Nanog, SSEA-4, smooth muscle actin and MAP-2 were purchased from Millipore. […]
smiles,measurement,value
O=c1cc(N2CCOCC2)oc2c(-c3ccccc3)cccc12 [LY 294002],hES cell survival 24 hours after plating on LN-521 with pathway inhibitor,no cells surviving
